# Data taken from patent publication US4782014A, “Assay and purification of amyloid components, applications, and kits therefor” (Ciba-Geigy Corporation, priority 1985, dated 1988).
# The chains behind the UniProt entries cited, without tags or fusion partners. Residues count along the entry.
# UniProt P02743, 20-223: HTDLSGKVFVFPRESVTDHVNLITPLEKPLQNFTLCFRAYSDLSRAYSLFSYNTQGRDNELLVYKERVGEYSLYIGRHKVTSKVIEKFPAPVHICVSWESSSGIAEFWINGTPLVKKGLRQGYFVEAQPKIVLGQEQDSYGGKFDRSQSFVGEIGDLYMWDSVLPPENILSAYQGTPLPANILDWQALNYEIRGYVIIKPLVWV
# For at least one compound, name, drawing or mass did not settle the structure.
# Target: human SAP binding to TNP-KLH coated polystyrene (Homo sapiens, UniProt P02743)
# Test: Inhibition of binding of human SAP to TNP-KLH coated polystyrene
smiles,measurement,value
O=[N+]([O-])c1ccc(O)c([N+](=O)[O-])c1 [dinitrophenol],"inhibition of SAP binding to TNP-KLH coated polystyrene, in words",no inhibitors in the present assay
